# Experimental data published in publication PMC9317960 (Biochemical Journal, 2022).
# Results are given in words; binding and its absence hold for the method and conditions named.
# Molecular target: SCRIB PDZ3 H1071A (human) (UniProt Q14160)
# Assay: ITC; both purified
binder,measurement,value
LRLESSII [TBEV NS5_CTN peptide (C-terminal PBM of NS5)],binding,no binding
